Measured values reported in publication PMC5014341.
No constants are given. Whether binding was seen depends on the method and setting. For some assays here: In cells and extracts the contact can be indirect. For some assays here: Sequences can lack the tags named with a protein.

By UniProt entry, the sequences of proteins in these tests, tags left out. Residues count along the entry.
UniProt P9WIN9, residues 25-228: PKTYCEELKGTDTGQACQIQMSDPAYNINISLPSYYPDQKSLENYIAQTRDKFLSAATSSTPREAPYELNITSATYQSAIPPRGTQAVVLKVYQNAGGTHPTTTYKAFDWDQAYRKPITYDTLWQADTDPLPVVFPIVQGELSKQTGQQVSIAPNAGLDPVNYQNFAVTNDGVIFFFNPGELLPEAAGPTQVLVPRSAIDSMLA

Key:
[1] = biological target: 6xHis-Rv1980c (M. tuberculosis) (UniProt P9WIN9); experiment: pull-down
[2] = biological target: T1, 6xHis-2xFlag-RsiV^(59-285, S169W, P259A, Y261A) (B. subtilis) (UniProt O05403); experiment: ITC; HEW lysozyme (0.1 mM) injected into 6xHis-2xFlag-RsiV^59-285 or mutant (0.01 mM) in the cell; 50 mM Na2HPO4, 200 mM NaCl, pH 7.0; 25°C; single site binding model; averaged from three runs from two protein preps; both purified
T1 sequence: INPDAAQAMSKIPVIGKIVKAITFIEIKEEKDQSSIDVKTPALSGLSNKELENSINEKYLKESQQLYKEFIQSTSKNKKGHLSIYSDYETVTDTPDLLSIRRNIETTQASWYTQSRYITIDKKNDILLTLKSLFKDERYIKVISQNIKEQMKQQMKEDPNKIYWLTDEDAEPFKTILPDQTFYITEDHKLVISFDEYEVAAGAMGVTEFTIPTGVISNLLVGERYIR

## hen egg white (HEW) lysozyme (from UniProt P00698 19-147) (enzyme)
[1]
  binding: no binding
[2]
  binding: no binding (tested: >50 μM)
